Laboratory results as given in the supplement of paper PMC10849652.
This is one part of the list.

By UniProt entry, the sequences of proteins in these tests, tags left out. Where a name states a change or a piece, a line headed by the entry shows the natural chain unless it says otherwise.
UniProt Q15369, whole entry, looked up: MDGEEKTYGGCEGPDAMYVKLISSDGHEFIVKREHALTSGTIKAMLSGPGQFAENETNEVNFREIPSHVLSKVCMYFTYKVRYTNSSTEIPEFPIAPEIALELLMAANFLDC
UniProt Q9H4G0, whole entry, looked up: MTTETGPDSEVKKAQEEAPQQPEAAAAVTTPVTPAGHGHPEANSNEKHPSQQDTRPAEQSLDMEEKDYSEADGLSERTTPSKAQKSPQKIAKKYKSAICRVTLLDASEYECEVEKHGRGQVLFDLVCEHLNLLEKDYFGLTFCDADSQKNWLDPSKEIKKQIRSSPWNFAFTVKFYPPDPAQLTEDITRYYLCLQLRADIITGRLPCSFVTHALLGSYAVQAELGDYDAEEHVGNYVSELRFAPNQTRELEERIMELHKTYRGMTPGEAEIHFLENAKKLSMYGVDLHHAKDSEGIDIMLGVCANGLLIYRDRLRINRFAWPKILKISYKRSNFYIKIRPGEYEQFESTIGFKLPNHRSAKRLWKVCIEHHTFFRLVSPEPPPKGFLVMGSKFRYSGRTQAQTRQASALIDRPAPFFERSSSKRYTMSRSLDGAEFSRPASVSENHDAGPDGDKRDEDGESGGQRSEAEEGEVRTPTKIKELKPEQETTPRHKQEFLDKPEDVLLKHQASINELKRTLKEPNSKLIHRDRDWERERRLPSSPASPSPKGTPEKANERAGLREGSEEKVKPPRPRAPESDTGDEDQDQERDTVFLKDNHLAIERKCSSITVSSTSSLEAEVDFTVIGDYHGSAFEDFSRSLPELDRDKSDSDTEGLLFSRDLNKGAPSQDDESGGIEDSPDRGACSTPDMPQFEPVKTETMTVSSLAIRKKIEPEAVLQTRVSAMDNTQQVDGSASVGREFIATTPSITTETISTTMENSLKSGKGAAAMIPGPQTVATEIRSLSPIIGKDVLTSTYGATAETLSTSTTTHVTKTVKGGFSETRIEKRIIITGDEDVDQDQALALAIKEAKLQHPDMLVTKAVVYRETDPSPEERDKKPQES
UniProt P05198, whole entry, looked up: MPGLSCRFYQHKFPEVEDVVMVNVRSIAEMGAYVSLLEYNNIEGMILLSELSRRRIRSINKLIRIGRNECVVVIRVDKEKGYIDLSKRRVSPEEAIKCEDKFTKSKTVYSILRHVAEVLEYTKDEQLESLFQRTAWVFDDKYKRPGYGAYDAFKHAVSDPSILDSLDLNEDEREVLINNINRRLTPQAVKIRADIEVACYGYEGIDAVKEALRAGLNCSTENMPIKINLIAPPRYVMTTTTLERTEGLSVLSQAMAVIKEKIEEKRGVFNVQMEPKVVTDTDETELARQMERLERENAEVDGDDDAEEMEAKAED
UniProt P20042, whole entry, looked up: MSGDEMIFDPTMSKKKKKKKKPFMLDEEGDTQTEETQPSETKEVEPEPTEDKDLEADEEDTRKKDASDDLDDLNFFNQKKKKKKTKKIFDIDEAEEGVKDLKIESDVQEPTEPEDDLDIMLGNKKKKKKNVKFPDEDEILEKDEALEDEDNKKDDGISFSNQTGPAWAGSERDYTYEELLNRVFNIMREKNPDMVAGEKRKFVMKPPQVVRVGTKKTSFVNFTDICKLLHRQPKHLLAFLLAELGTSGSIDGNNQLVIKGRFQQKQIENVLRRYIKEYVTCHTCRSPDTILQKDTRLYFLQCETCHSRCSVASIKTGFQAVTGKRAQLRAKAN
UniProt O75821, whole entry, looked up: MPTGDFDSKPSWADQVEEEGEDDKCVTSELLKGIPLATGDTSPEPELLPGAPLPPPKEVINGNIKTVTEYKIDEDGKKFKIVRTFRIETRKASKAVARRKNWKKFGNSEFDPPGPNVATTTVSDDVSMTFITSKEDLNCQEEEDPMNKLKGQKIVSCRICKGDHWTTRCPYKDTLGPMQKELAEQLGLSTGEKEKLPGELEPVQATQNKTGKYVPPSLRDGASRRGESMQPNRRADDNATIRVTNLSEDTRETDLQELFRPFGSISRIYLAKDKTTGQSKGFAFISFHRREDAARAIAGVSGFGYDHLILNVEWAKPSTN
UniProt Q5J8M3, whole entry, looked up: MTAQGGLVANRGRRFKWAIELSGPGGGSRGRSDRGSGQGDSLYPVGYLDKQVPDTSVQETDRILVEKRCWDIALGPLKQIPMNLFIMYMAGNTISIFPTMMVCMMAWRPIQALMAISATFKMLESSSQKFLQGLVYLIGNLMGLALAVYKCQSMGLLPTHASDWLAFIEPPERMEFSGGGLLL
UniProt O60841: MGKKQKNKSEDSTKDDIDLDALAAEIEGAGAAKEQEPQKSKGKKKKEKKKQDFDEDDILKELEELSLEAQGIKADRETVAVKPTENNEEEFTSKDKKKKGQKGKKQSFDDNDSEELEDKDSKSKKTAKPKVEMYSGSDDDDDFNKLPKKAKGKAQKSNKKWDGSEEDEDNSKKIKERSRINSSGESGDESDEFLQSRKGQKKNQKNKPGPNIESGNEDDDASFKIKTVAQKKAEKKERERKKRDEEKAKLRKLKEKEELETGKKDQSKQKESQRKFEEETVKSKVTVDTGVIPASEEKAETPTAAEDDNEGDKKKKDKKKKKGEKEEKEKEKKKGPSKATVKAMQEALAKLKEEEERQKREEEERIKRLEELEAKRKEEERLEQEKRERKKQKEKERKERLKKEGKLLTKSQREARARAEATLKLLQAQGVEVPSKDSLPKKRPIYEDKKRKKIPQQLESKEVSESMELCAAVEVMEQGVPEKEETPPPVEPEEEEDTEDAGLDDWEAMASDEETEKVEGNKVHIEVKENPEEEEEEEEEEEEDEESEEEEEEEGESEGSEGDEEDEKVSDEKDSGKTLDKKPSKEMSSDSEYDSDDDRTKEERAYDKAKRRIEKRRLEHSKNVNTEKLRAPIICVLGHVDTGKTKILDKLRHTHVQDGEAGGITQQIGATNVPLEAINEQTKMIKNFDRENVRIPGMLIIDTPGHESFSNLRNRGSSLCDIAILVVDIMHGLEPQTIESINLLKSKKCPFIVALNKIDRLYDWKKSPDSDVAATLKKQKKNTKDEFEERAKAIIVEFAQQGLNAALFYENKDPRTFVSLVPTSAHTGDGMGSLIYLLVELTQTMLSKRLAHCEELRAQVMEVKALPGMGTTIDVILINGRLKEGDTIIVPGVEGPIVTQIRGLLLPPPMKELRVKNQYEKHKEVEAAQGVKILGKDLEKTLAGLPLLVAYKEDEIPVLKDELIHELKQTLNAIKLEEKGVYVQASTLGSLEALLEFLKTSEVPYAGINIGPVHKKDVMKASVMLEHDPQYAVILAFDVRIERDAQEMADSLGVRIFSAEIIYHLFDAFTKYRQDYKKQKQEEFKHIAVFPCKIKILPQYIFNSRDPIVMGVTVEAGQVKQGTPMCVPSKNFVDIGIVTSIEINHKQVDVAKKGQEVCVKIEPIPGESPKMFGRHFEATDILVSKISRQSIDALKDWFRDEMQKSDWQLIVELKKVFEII
UniProt Q6IA86: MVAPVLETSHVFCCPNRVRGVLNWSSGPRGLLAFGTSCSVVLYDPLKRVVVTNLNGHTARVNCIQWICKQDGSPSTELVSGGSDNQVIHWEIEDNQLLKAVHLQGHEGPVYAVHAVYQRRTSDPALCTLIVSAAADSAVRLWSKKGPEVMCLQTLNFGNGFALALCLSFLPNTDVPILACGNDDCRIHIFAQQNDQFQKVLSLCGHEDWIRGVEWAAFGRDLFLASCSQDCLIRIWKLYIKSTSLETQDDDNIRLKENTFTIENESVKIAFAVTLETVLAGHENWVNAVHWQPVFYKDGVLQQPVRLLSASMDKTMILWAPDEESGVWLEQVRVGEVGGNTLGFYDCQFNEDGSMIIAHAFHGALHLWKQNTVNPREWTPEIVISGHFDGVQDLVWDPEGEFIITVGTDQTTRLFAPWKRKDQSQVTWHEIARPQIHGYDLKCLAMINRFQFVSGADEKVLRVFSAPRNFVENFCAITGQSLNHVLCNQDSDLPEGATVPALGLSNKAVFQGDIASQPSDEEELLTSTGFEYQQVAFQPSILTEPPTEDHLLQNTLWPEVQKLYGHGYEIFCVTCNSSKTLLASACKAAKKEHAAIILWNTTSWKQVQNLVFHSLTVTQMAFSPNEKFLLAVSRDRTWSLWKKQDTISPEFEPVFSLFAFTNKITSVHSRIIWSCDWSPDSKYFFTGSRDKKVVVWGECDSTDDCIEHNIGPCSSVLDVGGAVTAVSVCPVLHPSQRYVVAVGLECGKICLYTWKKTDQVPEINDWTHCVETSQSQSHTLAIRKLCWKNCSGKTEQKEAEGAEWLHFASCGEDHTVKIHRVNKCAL
UniProt Q14249: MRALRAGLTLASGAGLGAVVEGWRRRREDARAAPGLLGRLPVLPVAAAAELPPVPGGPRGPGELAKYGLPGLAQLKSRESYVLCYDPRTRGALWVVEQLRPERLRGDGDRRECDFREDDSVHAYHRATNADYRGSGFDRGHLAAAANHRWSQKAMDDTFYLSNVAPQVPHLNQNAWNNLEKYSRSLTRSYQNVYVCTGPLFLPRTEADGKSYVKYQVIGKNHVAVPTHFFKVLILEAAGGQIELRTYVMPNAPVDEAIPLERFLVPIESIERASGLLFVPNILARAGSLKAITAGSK
UniProt P11171, whole entry, looked up: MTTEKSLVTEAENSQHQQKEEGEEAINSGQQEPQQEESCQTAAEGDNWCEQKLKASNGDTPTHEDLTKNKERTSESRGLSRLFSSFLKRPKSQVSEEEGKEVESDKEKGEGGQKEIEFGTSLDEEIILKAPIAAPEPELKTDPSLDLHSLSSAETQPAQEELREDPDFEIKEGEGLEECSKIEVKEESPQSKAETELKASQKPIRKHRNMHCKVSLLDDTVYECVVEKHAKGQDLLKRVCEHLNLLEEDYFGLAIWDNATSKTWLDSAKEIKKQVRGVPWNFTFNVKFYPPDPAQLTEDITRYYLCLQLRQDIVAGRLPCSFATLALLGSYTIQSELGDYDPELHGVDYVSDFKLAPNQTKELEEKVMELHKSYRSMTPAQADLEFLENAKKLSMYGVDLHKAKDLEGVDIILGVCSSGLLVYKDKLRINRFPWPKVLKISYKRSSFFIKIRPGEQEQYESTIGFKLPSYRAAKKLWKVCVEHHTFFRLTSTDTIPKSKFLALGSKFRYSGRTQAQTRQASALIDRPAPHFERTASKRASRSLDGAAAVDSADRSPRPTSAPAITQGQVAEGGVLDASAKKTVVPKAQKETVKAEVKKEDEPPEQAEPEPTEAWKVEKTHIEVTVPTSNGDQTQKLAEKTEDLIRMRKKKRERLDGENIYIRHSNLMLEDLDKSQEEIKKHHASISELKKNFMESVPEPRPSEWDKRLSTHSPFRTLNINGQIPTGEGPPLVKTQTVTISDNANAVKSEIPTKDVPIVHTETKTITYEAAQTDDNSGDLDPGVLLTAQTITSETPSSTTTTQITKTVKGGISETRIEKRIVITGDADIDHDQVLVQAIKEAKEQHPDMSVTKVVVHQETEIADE
UniProt P28715: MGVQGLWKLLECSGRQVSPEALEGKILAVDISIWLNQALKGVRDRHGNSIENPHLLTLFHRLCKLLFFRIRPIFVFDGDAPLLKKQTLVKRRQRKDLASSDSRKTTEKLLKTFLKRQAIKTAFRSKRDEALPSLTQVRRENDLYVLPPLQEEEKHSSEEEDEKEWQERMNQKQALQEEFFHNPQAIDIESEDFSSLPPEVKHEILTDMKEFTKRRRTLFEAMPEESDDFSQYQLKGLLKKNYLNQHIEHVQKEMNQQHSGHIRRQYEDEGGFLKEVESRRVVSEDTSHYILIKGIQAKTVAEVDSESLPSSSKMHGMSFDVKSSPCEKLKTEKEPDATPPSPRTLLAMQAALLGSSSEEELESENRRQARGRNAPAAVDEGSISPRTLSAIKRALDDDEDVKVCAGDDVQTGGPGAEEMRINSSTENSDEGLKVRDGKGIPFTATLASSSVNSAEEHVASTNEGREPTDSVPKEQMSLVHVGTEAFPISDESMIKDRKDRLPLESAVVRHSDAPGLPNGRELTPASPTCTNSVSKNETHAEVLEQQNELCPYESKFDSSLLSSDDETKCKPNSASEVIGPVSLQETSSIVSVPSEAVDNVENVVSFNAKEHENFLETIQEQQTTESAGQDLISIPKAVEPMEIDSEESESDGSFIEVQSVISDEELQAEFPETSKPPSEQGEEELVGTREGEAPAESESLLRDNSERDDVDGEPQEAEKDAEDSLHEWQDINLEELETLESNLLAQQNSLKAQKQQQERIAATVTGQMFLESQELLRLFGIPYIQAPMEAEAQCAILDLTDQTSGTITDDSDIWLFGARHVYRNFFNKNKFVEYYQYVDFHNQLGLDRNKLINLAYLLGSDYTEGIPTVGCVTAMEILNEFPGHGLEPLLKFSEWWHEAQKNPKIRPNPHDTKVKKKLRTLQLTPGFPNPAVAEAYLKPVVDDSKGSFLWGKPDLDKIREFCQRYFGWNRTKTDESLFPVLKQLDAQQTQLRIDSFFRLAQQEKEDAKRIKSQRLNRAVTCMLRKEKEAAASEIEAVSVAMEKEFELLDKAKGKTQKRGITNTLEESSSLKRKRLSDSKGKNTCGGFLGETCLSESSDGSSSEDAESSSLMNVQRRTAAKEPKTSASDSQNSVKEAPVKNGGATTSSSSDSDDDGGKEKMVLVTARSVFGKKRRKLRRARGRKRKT

What was measured:
Test in all cases: log2 fold change, soluble protein after heating vs DMSO (PISA); higher = thermal stabilisation; K562 lysate, 10 uM; active = over 0.2 and 3.5 SD of the protein, either way, in both replicates (recomputed)
vemurafenib = compound: CCCS(=O)(=O)Nc1ccc(F)c(C(=O)c2c[nH]c3ncc(-c4ccc(Cl)cc4)cc23)c1F [vemurafenib]
Procedure, shortened: (§1)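 To prepare the extract, K562 pellets were dounce-homogenised in PBS pH 7.4 with 1 mM MgCl2, giving crude material at 1 mg/mL protein. This was treated with 10 μM compound for 30 min, then heated in aliquots for 3 min over 48°C-58°C before pooling and addition of NP-40 to 0.5% at 4°C. Centrifugation at 21,000xg for 90 min left soluble protein in the supernatant, which TMTpro 16plex LC-MS/MS quantified with equalised channel sums. Results are log-two fold changes in thermal stability compared with solvent controls, from duplicates.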

[1] = compound: CCCS(=O)(=O)Nc1ccc(F)c(C(=O)c2c[nH]c3ncc(Cl)cc23)c1F
Procedure, shortened: as §1

barasertib = compound: CCN(CCCOc1ccc2c(Nc3cc(CC(=O)Nc4cccc(F)c4)[nH]n3)ncnc2c1)CCOP(=O)(O)O [barasertib]
Procedure, shortened: as §1

[2] = compound: CC[C@@H]1C(=O)N(C)c2cnc(Nc3ccc(C(=O)NC4CCN(C)CC4)cc3OC)nc2N1C1CCCC1
Procedure, shortened: as §1

volasertib = compound: CC[C@@H]1C(=O)N(C)c2cnc(Nc3ccc(C(=O)N[C@H]4CC[C@H](N5CCN(CC6CC6)CC5)CC4)cc3OC)nc2N1C(C)C [volasertib]
Procedure, shortened: as §1

[3] = compound: CCn1c(C(=O)N(C2CC2)C2CC2)cc2c3c(ncn3C)c(Nc3cc(C)n(C)n3)nc21
Procedure, shortened: as §1

[4] = compound: CCn1cc(-c2ccnc3[nH]c(-c4cccc(CN(C)C)c4)cc23)c(-c2ccc(NC(=O)N(C)C)cc2)n1
Procedure, shortened: as §1

[5] = compound: CN1CCC(CNc2ccc3ncc(-c4cccc(OC(F)(F)F)c4)n3n2)CC1
Procedure, shortened: as §1

saracatinib = compound: CN1CCN(CCOc2cc(OC3CCOCC3)c3c(Nc4c(Cl)ccc5c4OCO5)ncnc3c2)CC1 [saracatinib]
Procedure, shortened: as §1

sotrastaurin = compound: CN1CCN(c2nc(C3=C(c4c[nH]c5ccccc45)C(=O)NC3=O)c3ccccc3n2)CC1 [sotrastaurin]
Procedure, shortened: as §1

Measured: log2 fold change

EIF2AK4 (UniProt Q9P2K8)
inactive: vemurafenib 0.018 | [1] 0.02 | barasertib 0.055 | [2] 0.031 | volasertib -0.001 | [3] -0.009 | [4] -0.003 | [5] 0.034 | saracatinib 0.019 | sotrastaurin 0.009

ELOC (UniProt Q15369)
inactive: vemurafenib 0.022 | [1] 0.015 | barasertib 0.137 | [2] -0.036 | volasertib 0.027 | [3] 0 | [4] -0.041 | [5] -0.057 | saracatinib 0.024 | sotrastaurin -0.04

EPB41L1 (UniProt Q9H4G0)
inactive: vemurafenib 0.047 | [1] 0.012 | barasertib -0.044 | [2] -0.007 | volasertib -0.049 | [3] -0.161 | [4] 0.014 | [5] 0.045 | saracatinib 0.067 | sotrastaurin 0.102

EIF2S1 (UniProt P05198)
inactive: vemurafenib 0.005 | [1] -0.026 | barasertib -0.036 | [2] 0.009 | volasertib 0.018 | [3] 0.001 | [4] -0.038 | [5] 0.02 | saracatinib -0.016 | sotrastaurin -0.009

EIF2S2 (UniProt P20042)
inactive: vemurafenib 0.01 | [1] -0.018 | barasertib -0.024 | [2] 0.039 | volasertib 0.012 | [3] -0.023 | [4] 0.13 | [5] -0.038 | saracatinib -0.011 | sotrastaurin -0.008

EIF4H (UniProt Q15056)
inactive: vemurafenib -0.036 | [1] 0.025 | barasertib -0.036 | [2] 0.071 | volasertib 0.026 | [3] -0.013 | [4] -0.01 | [5] 0.012 | saracatinib -0.021 | sotrastaurin 0.058

EIF3G (UniProt O75821)
inactive: vemurafenib 0.019 | [1] 0.008 | barasertib -0.115 | [2] 0.021 | volasertib 0.014 | [3] -0.019 | [4] -0.022 | [5] -0.058 | saracatinib 0.009 | sotrastaurin 0.003

EMC4 (UniProt Q5J8M3)
inactive: vemurafenib 0.088 | [1] 0.008 | barasertib 0.138 | [2] -0.045 | volasertib -0.006 | [3] 0.029 | [4] -0.004 | [5] -0.048 | saracatinib 0.123 | sotrastaurin -0.014

EIF5B (UniProt O60841)
inactive: vemurafenib 0.001 | [1] 0.006 | barasertib -0.035 | [2] 0.016 | volasertib -0.003 | [3] -0.014 | [4] 0.013 | [5] -0.015 | saracatinib 0.008 | sotrastaurin -0.011

2 entries drawn at random from those above:
EIF2S2 (UniProt P20042)
inactive: vemurafenib 0.01 | [1] -0.018 | barasertib -0.024 | [2] 0.039 | volasertib 0.012 | [3] -0.023 | [4] 0.13 | [5] -0.038 | saracatinib -0.011 | sotrastaurin -0.008

EMC4 (UniProt Q5J8M3)
inactive: vemurafenib 0.088 | [1] 0.008 | barasertib 0.138 | [2] -0.045 | volasertib -0.006 | [3] 0.029 | [4] -0.004 | [5] -0.048 | saracatinib 0.123 | sotrastaurin -0.014

(listing goes on)

ELP2 isoform 6 (UniProt Q6IA86)
inactive: vemurafenib -0.022 | [1] 0.011 | barasertib 0.008 | [2] -0.007 | volasertib -0.007 | [3] -0.021 | [4] -0.097 | [5] 0.027 | saracatinib 0.007 | sotrastaurin 0.021

EIF4G1 (UniProt Q04637)
inactive: vemurafenib -0.006 | [1] -0.01 | barasertib 0.005 | [2] -0.011 | volasertib -0.032 | [3] -0.002 | [4] 0.021 | [5] -0.04 | saracatinib 0.005 | sotrastaurin -0.011

ENDOG (UniProt Q14249)
inactive: vemurafenib -0.053 | [1] -0.004 | barasertib -0.037 | [2] -0.036 | volasertib -0.014 | [3] -0.019 | [4] -0.002 | [5] 0.013 | saracatinib -0.013 | sotrastaurin -0.006

EPB41 (UniProt P11171)
inactive: vemurafenib -0.051 | [1] 0.005 | barasertib -0.009 | [2] -0.033 | volasertib -0.02 | [3] 0.022 | [4] 0.026 | [5] -0.135 | saracatinib 0.014 | sotrastaurin 0.026

ERCC5 (UniProt P28715)
inactive: vemurafenib 0.018 | [1] 0.034 | barasertib -0.044 | [2] -0.016 | volasertib 0 | [3] -0.083 | [4] 0.001 | [5] 0.013 | saracatinib -0.006 | sotrastaurin 0.033
